# Measured values reported in EP3524266A1, “VACCINE FOR USE IN THE PREVENTION OR TREATMENT OF LEISHMANIASIS” (Universitätsmedizin der Johannes Gutenberg-Universität Mainz, priority 2018, dated 2019).
# At least one peptide structure holds a part that was inferred or is arguable (an end, a ring closure or a residue). No end group written: not given here.
# Test system: L. major
# Assay: Prime/boost/boost immunization with peptide plus CpG, then low-dose L. major challenge in the contralateral ear
# Type: in vivo, C57BL/6 mice
sequence,measurement,setting,value
CAQANVSLI [p54],lesion volumes,"C57BL/6 mice immunized with peptide plus CpG, compared to control mice",significantly reduced
same,local and systemic parasite burdens (ears and spleens),"C57BL/6 mice immunized with peptide plus CpG, limiting dilution assay",reduced numbers of parasites
same,protection of mice against challenge,"C57BL/6 mice, 20 µg then 2x 10 µg peptide plus CpG, 1,000 metacyclic promastigotes, compared to control mice",able to protect mice against challenge
